Data from PubChem BioAssay AID256 (DTP/NCI, 2004).
The list shows only some results of the screen, not a fair sample: it gathers tests that were run many times, whatever their T/C, doses with no T/C, and many T/C values between a quarter and a half above the control. Other doses and runs of a compound stand elsewhere. T/C gives the treated animals as a percentage of the vehicle group. Some entries give survivors of the animals treated and no T/C: the source holds a T/C of zero for them, seemingly a mark for toxic or unscored doses. Counts of survivors are from the toxicity check (mostly the fifth day) where no day follows; animals may have died later. Schedules are NCI's codes, taken here to give the interval after Q, in days (D) or hours (H), and the number of doses after X. Where survival is the endpoint, this PubChem deposit counts one and a half times the control or more as active, and values a quarter to a half above the control carry no call in these data; other NCI protocols may use other cut-offs. Some entries were tested several times; the values are given in rising order.

Test system: CD2F1 mice, L1210 leukemia ip, survival T/C
Test: NCI In Vivo Anticancer Drug Screen. Data for tumor model L1210 Leukemia (intraperitoneal) in CD2F1 (CDF1) mice
Conditions: higher T/C = longer survival
How it was run: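 Ratio T/C, where T is the treated-group value and C the vehicle-dosed control value, from mice implanted with a transplantable tumor.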

[1] = T/C endpoint: mean survival time, dose: 200.0 mg/kg/injection, schedule: Q01DX009 (ip), vehicle: water

**Q.** CO[C@@]12[C@@H]3N[C@@H]3CN1C1=C(C(=O)C(NCCc3ccc(O)cc3)=C(C)C1=O)[C@@H]2COC(N)=O was tested. Which T/C (T/C endpoint: mean survival time, dose: 12.0 mg/kg/injection, schedule: Q01DX001 (ip), vehicle: water) did it give?
**A.** 126 % of control

**Q.** And the T/C (T/C endpoint: mean survival time, dose: 24.0 mg/kg/injection, schedule: Q01DX001 (ip), vehicle: water)?
**A.** 125 and 132 % of control

**Q.** CN(N=O)C(=O)NCC1OC(OC2(CNC(=O)N(C)N=O)OC(CNC(=O)N(C)N=O)C(O)C2O)C(O)C(O)C1O (stereo not drawn) was tested. Which T/C [1] did it give?
**A.** 137 % of control

**Q.** With COc1ccc2oc3c(ccc[n+]3C)c(=O)c2c1 as the compound, how does the survivor count (T/C endpoint: median survival time, dose: 480.0 mg/kg/injection, schedule: Q01DX005 (ip), vehicle: saline with Tween-80) read?
**A.** 2 of 6

**Q.** Which results are given for N#CCC(C#N)C1C=CCC1 (stereo not drawn)?
**A.** survivor count (T/C endpoint: mean survival time, dose: 12.5 mg/kg/injection, schedule: Q04DX003 (ip), vehicle: saline): 2 of 6; survivor count (T/C endpoint: mean survival time, dose: 75.0 mg/kg/injection, schedule: Q01DX001 (ip), vehicle: saline): 0 of 6; survivor count (T/C endpoint: mean survival time, dose: 100.0 mg/kg/injection, schedule: Q04DX003 (ip), vehicle: saline with Tween-80): 0 of 6; survivor count (T/C endpoint: mean survival time, dose: 150.0 mg/kg/injection, schedule: Q01DX001 (ip), vehicle: saline): 0 of 6; survivor count (T/C endpoint: mean survival time, dose: 200.0 mg/kg/injection, schedule: Q04DX003 (ip), vehicle: saline with Tween-80): 0 of 6; survivor count (T/C endpoint: mean survival time, dose: 300.0 mg/kg/injection, schedule: Q01DX001 (ip), vehicle: saline): 0 of 6; survivor count (T/C endpoint: mean survival time, dose: 400.0 mg/kg/injection, schedule: Q04DX003 (ip), vehicle: saline with Tween-80): 0 of 6

**Q.** With O=C(O)CSc1nc(-c2ccccc2)c(-c2ccccc2)n1-c1ccccn1 as the compound, how does the survivor count [1] read?
**A.** 1 of 6

**Q.** And the survivor count (T/C endpoint: mean survival time, dose: 400.0 mg/kg/injection, schedule: Q01DX009 (ip), vehicle: water)?
**A.** 0 of 6
